LD50 data for 1 molecule are collected here from patent publication US4305940A, “Benzamides with local anaesthetic and antiarrhythmic activity, salts, and method of preparation thereof and pharmaceutical compositions therefrom” (B.B.R. Boehringer Biochemia Robin S.p.A., priority 1979, dated 1981).

The data set is described as follows: in vivo. The following applies: rat, ip, 5 days, hydrochloride salts, range in parentheses, read-out: DL50 i.p. From the text:
Acute toxicity has been determined in Swiss rats by the intraperitoneal injection of the compounds dissolved in physiological saline solution. The behavior of the animals has then been followed for a period of five days. The DL50 has been determined according to the method of I. T. Litchfield and F. Wilcoxon, (J. Pharmacol. Exper. Ther., 96, 99, 1949). The compound numbers in Table II correspond to the numbers in Table I.

Molecules are shown by their SMILES.

Take `CCN(CC)CC(=O)Nc1c(C)cccc1C` [Lidocaine, α-diethylamino-2,6-dimethyl-acetanilide, reference compound]: the LD50 at 120 h is 142 mg/kg.
